Hit rate of the full screen: of about 140,000 compounds, about 4,300 (3.1%) were called active. Inconclusive means that the source gave no clear call. Such entries were picked first, then a sample of the others.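 How the source made its calls: active means readout at or below -70, meaning at least 70% loss of cells showing the perinucleolar compartment, a nuclear body marking cancer cells; inconclusive means readout between -30 and a set limit; inactive means the rest.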
Assay: High Content Assay for Compounds that inhibit the Assembly of the Perinucleolar Compartment;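 further: plate controls were DMSO wells for no effect and camptothecin positive control wells for full effect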
Details: PC3M PTB-GFP, PNC prevalence imaging, 16 h; at 10 µM; hits give low values
In short: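 Read-out is percentage of cells bearing a perinucleolar compartment, from automated 20x imaging of fixed, Hoechst-stained PC3M PTB-GFP cells. Cells were seeded 4 h, then exposed 16 h to compound (23 nl of library stock) in duplicate plates.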

Compound | activity change (PNC), negative = inhibition
Cc1ccc(C(=O)Oc2ccc([N+](=O)[O-])cc2)cc1S(=O)(=O)N1CCCCCC1 | inactive: -28.9%
COc1cc([N+](=O)[O-])ccc1NC(=O)CC1SC(=Nc2ccc(F)cc2)N(CCC2=CCCCC2)C1=O (stereo not given) | inconclusive: -40.1%
COc1cc(OC)cc(-n2nnnc2SCC(=O)Nc2ccc(C(C)=O)cc2)c1 | inactive: 42.8%
COC(=O)c1ccccc1OCCOCCOc1cccc2cccnc12 | inconclusive: -33.8%
O=C(CCNS(=O)(=O)c1cccc2nsnc12)NC1CCN(Cc2ccccc2)CC1 | active: -112%
COc1cccc(-c2cc(C(=O)N3CCc4ccccc4C3)no2)c1 | inconclusive: -56.7%
CN1CCN(c2ccc(Cl)cc2NC(=O)c2cccc(S(=O)(=O)N(C)C)c2)CC1 | inconclusive: -32.8%
CSc1nnc2c3ccccc3n(CCc3ccccc3)c2n1 | active: -118%
CC(=O)C1=C(C)NC(SCC(=O)c2ccc(-c3ccccc3)cc2)=C(C#N)C1c1cccnc1 (stereo not given) | inactive: 84.1%
CCCc1cc2c(OC(=O)CC)c(-c3ccc(C(=O)OCC)o3)c(=O)oc2cc1OC | inconclusive: -48.2%
COc1ccccc1C1N(c2cc(Cl)ccc2OC)C(=O)C2CCCN21 (stereo not given) | active: -106%
CCCCOc1ccc(C(=O)N/N=C/c2cn[nH]c2-c2ccc(OC)c(OC)c2)cc1 | inconclusive: -45.3%
CC(C)(C)NS(=O)(=O)c1ccc(Oc2ncc(C(F)(F)F)cc2Cl)cc1 | inactive: 15.8%
O=C(O)c1sc2cc(C(F)(F)F)cnc2c1-c1ccccc1 | inactive: -13.7%
CC(=O)c1c(C)nc(-c2ccccc2)n1O | inactive: 3%
Cc1ccccc1C(=O)NC(=S)Nc1sc2c(c1C#N)CCC(C)C2 (stereo not given) | inconclusive: -33.7%
O=C(Nc1ccc2c(c1)OCO2)c1nn(-c2ccccc2)c(=O)c2ccccc12 | inconclusive: -41.5%
COc1ccccc1N1CCN(C(=O)/C=C/c2cccs2)CC1 | inactive: -15.9%
CCOc1cc(C2NC(=O)NC(O)(C(F)(F)F)C2C(=O)c2ccc(OC)cc2)ccc1O (stereo not given) | inactive: -1.17%
CCc1ccc(NC(=O)C(=O)NNC(=O)COc2cccc(OC)c2)cc1 | inactive: -5.48%
CCOC(=O)c1c(NC(=O)CN2C(=O)NC(C)(c3ccc(OC(F)F)cc3)C2=O)sc(C)c1C (stereo not given) | inconclusive: -31.8%
COc1ccc(OC)c(C2=NOC(C(=O)N3CCN(c4ccccc4)CC3)C2)c1 (stereo not given) | inconclusive: -50.2%
COc1ccc(/C=C2\SC(N3CCc4ccccc4C3)=NC2=O)cc1 | inconclusive: -50.4%

Compound | activity change (PNC), negative = inhibition
CCOC(=O)c1c(NC(=O)COC(=O)Cn2c(C)nc3ccccc32)sc2c1CCCC2 | inactive: 19%
Cc1ccc(OCC2Cn3c(nc4c3c(=O)[nH]c(=O)n4C)O2)cc1 (stereo not given) | active: -103%
CCC(Sc1nc2ccccc2s1)C(=O)Nc1nnc(C)s1 (stereo not given) | inconclusive: -32.7%
Cn1c(=O)[nH]c(=O)c2c1nc(Sc1ccccc1)n2CCc1ccccc1 | inconclusive: -51.6%
Cn1nc(C(=O)Nc2cccnc2)c2ccccc2c1=O | inactive: -4.11%
C/C(=N\Nc1nccnc1Cl)c1ccc([N+](=O)[O-])cc1 | inconclusive: -44.7%
CN(Cc1c(F)cccc1Cl)c1ccc(S(=O)(=O)N2CCOCC2)cn1 | inconclusive: -39.7%
CCOC(=O)CC1C(=O)NCCN1S(=O)(=O)c1ccccc1Cl (stereo not given) | inactive: 85.4%
N#Cc1nc(-c2ccc(F)cc2)oc1NCc1ccccc1 | inconclusive: -46.9%
O=C1CC(Sc2nnnn2C2CCCCC2)C(=O)N1c1ccccc1 (stereo not given) | active: -100%
CC(C)NC(=S)N/N=C/c1sc(N2CCCCC2)nc1-c1cccs1 | inconclusive: -40.2%
CN(C)S(=O)(=O)c1cc(NC(=O)CN2CCN(c3ccccc3)CC2)ccc1Cl | inactive: -25.1%
Cc1nc(N(C)C)ncc1C(=O)O | inconclusive: -60.7%
Cc1cc(C)nc(NC(=O)CCC2CCCC2)c1 | inactive: -14%
CC12Cc3ccc4ccccc4c3C=C1C[N+](C)(C)C2 (stereo not given) | inconclusive: -79.9%
CCOC(=O)N1CCN(C(=O)c2cnn(-c3ccccc3)c2NC(=O)c2ccccc2F)CC1 | inactive: 38%
C=CCN1C(=O)/C(=C\c2ccc(Cl)cc2)N=C1SCC(=O)NC1CCCCC1 | inconclusive: -34.7%
CCOC(=O)c1nn(-c2cccc(OC)c2)c2nc(Nc3ccccc3)cc(=O)n12 | inconclusive: -62.1%
O=C(ONc1ccc(N=NC(=O)c2ccccc2O)cc1)c1ccccc1 | inconclusive: -51%
CCOC(=O)Cn1ccc(O)c(Cc2ccc(Cl)cc2Cl)c1=O | inconclusive: -55.7%
Cc1cccc(OCCNc2nc3c(c(=O)n(C)c(=O)n3C)n2C)c1 | active: -96.6%
COc1ccc(OC)c(NC(=O)CSc2ccc3ccccc3c2)c1 | inconclusive: -30.4%

Compounds listed so far that contain a COOH group (two):
Compound | activity change (PNC), negative = inhibition
O=C(O)c1sc2cc(C(F)(F)F)cnc2c1-c1ccccc1 | inactive: -13.7%
Cc1nc(N(C)C)ncc1C(=O)O | inconclusive: -60.7%

From PubChem BioAssay AID2417 (National Center for Advancing Translational Sciences (NCATS), 2010)
